Experimental data from patent US7919295B2, “Polyol oxidases” (Danisco US Inc., priority 2006, dated 2011).
For at least one compound, name, drawing or mass did not settle the structure.

Tested on: Sorbitol oxidase
Assay: Substrate range study of sorbitol oxidase (relative POx activities for substrates)
Format: biochemical, Streptomyces sp. H-7775
Conditions: substrates 50 mM in 10 mM phosphate buffer pH 7.0; relative to sorbitol

| SMILES | Relative Activity (+, 0) |
| --- | --- |
| CC(O)CO (centres unmarked) [1,2-propanediol] | +/2 |
| OCCCO [1,3-propanediol] | +/2 |
